Consider 2 molecules from patent US20230074223A1, “COMPOSITIONS AND METHODS FOR THE TREATMENT OF MASTITIS” (SOCIETE DES PRODUITS NESTLE S.A., priority 2019, published 2023).

The data set can be described thus: Protein concentrations of human milk by SCM status (LabChip). The following applies: for Concentration in milk of women with sub-clinical mastitis in comparison to normal women: in words.

B1: Lactoferrin: major human milk protein (protein, UniProt P02788 20-710, looked up)
Lactotransferrin: GRRRSVQWCAVSQPEATKCFQWQRNMRKVRGPPVSCIKRDSPIQCIQAIAENRADAVTLDGGFIYEAGLAPYKLRPVAAEVYGTERQPRTHYYAVAVVKKGGSFQLNELQGLKSCHTGLRRTAGWNVPIGTLRPFLNWTGPPEPIEAAVARFFSASCVPGADKGQFPNLCRLCAGTGENKCAFSSQEPYFSYSGAFKCLRDGAGDVAFIRESTVFEDLSDEAERDEYELLCPDNTRKPVDKFKDCHLARVPSHAVVARSVNGKEDAIWNLLRQAQEKFGKDKSPKFQLFGSPSGQKDLLFKDSAIGFSRVPPRIDSGLYLGSGYFTAIQNLRKSEEEVAARRARVVWCAVGEQELRKCNQWSGLSEGSVTCSSASTTEDCIALVLKGEADAMSLDGGYVYTAGKCGLVPVLAENYKSQQSSDPDPNCVDRPVEGYLAVAVVRRSDTSLTWNSVKGKKSCHTAVDRTAGWNIPMGLLFNQTGSCKFDEYFSQSCAPGSDPRSNLCALCIGDEQGENKCVPNSNERYYGYTGAFRCLAENAGDVAFVKDVTVLQNTDGNNNEAWAKDLKLADFALLCLDGKRKPVTEARSCHLAMAPNHAVVSRMDKVERLKQVLLHQQAKFGRNGSDCPDKFCLFQSETKNLLFNDNTECLARLHGKTTYEKYLGPQYVAGITNLKKCSTSPLLEACEFLRK
Consider B1, for which the “Concentration in milk of women with sub-clinical mastitis in comparison to normal women” value was “higher concentrations”. In addition, the “Concentration of human milk” value (Any SCM, Day 2) worked out at 7053.9 ± 3832.6 ng/µL. The “Concentration of human milk” value (Any SCM, Day 17) came out at 3315.6 ± 2486.1 ng/µL. Moreover, under “Any SCM, Day 30”, the “Concentration of human milk” value worked out at 2430.8 ± 2176.9 ng/µL. In addition, the “Concentration of human milk” value (Any SCM, Day 60) was 1757.1 ± 955.4 ng/µL. Moreover, the “Concentration of human milk” value (Any SCM, Day 90) stood at 1543.1 ± 699.2 ng/µL. In addition, the “Concentration of human milk” value (Any SCM, Day 120) was 1510.4 ± 1502.3 ng/µL. For the same molecule, the “Concentration of human milk” value (Normal, Day 2) stood at 5340.2 ± 2372.7 ng/µL. The “Concentration of human milk” value (Normal, Day 17) was found to be 2379.4 ± 913.4 ng/µL. For the same molecule, the “Concentration of human milk” value (Normal, Day 30) worked out at 1765.9 ± 680.7 ng/µL. Besides, the “Concentration of human milk” value (Normal, Day 60) was 1339.0 ± 485.6 ng/µL. In addition, for the setting “Normal, Day 90”, the “Concentration of human milk” value is 1298.6 ± 810.1 ng/µL. Moreover, the “Concentration of human milk” value (Normal, Day 120) amounted to 1468.2 ± 3269.1 ng/µL.

B2: Alpha-lactalbumin: major human milk protein (protein, UniProt P00709 20-142, looked up)
Alpha-lactalbumin: KQFTKCELSQLLKDIDGYGGIALPELICTMFHTSGYDTQAIVENNESTEYGLFQISNKLWCKSSQVPQSRNICDISCDKFLDDDITDDIMCAKKILDIKGIDYWLAHKALCTEKLEQWLCEKL
For B2, the “Concentration in milk of women with sub-clinical mastitis in comparison to normal women” value is “higher concentrations”. In addition, the “Concentration of human milk” value (Any SCM, Day 2) turned out to be 3232.8 ± 685.0 ng/µL. Further, for the setting “Any SCM, Day 17”, the “Concentration of human milk” value came to 3131.2 ± 548.4 ng/µL. Besides, for the setting “Any SCM, Day 30”, the “Concentration of human milk” value was found to be 2893.1 ± 506.6 ng/µL. Also, the “Concentration of human milk” value (Any SCM, Day 60) amounted to 2469.0 ± 466.5 ng/µL. Under “Any SCM, Day 90”, the “Concentration of human milk” value amounted to 2249.5 ± 422.3 ng/µL. For the same molecule, the “Concentration of human milk” value (Any SCM, Day 120) came to 2089.4 ± 415.8 ng/µL. In addition, where the note is “Normal, Day 2”, the “Concentration of human milk” value was 3043.6 ± 597.1 ng/µL. Also, where the note is “Normal, Day 17”, the “Concentration of human milk” value was found to be 3036.6 ± 544.4 ng/µL. For the same molecule, the “Concentration of human milk” value (Normal, Day 30) is 2740.7 ± 499.1 ng/µL. Further, the “Concentration of human milk” value (Normal, Day 60) was determined as 2278.1 ± 372.4 ng/µL. Also, the “Concentration of human milk” value (Normal, Day 90) was found to be 2126.7 ± 374.1 ng/µL. Besides, the “Concentration of human milk” value (Normal, Day 120) worked out at 2015.8 ± 378.0 ng/µL.
